Measurements taken from PMC6987383.
Results are given in words; binding and its absence hold for the method and conditions named. Binding seen in cells or lysates may run through a third protein. Some results given as binding are weak or reduced against the parent protein; the word gives no strength.

Biological target: OCT4 (mouse embryo) (mouse (endogenous in E7.0 embryos)), P20263
Assay: proximity ligation; Duolink In Situ Red kit on sections of E7 mouse embryos; primary antibodies against OCT4 and β-CATENIN at 4°C overnight
Settings: remark: other sources report otherwise

B1: β-CATENIN (mouse embryo), Q02248 1-781 (protein)
chain: MATQADLMELDMAMEPDRKAAVSHWQQQSYLDSGIHSGATTTAPSLSGKGNPEEEDVDTSQVLYEWEQGFSQSFTQEQVADIDGQYAMTRAQRVRAAMFPETLDEGMQIPSTQFDAAHPTNVQRLAEPSQMLKHAVVNLINYQDDAELATRAIPELTKLLNDEDQVVVNKAAVMVHQLSKKEASRHAIMRSPQMVSAIVRTMQNTNDVETARCTAGTLHNLSHHREGLLAIFKSGGIPALVKMLGSPVDSVLFYAITTLHNLLLHQEGAKMAVRLAGGLQKMVALLNKTNVKFLAITTDCLQILAYGNQESKLIILASGGPQALVNIMRTYTYEKLLWTTSRVLKVLSVCSSNKPAIVEAGGMQALGLHLTDPSQRLVQNCLWTLRNLSDAATKQEGMEGLLGTLVQLLGSDDINVVTCAAGILSNLTCNNYKNKMMVCQVGGIEALVRTVLRAGDREDITEPAICALRHLTSRHQEAEMAQNAVRLHYGLPVVVKLLHPPSHWPLIKATVGLIRNLALCPANHAPLREQGAIPRLVQLLVRAHQDTQRRTSMGGTQQQFVEGVRMEEIVEGCTGALHILARDVHNRIVIRGLNTIPLFVQLLYSPIENIQRVAAGVLCELAQDKEAAEAIEAEGATAPLTELLHSRNEGVATYAAAVLFRMSEDKPQDYKKRLSVELTSSLFRTEPMAWNETADLGLDIGAQGEALGYRQDDPSYRSFHSGGYGQDALGMDPMMEHEMGGHHPGADYPVDGLPDLGHAQDLMDGLPPGDSNQLAWFDTDL
binding: binds
